This is an account of results in article doi:10.1101/162958.

No constants are given. Whether binding was seen depends on the method and setting. In cells and extracts the contact can be indirect. Binding calls can cover weak binding; strength is not graded here. Where a sequence is shown, tags or fusion partners need not be part of it.

What all share (assay): co-IP
Test [1] has as its target T1, Stx3 (1–146), soluble three-helix bundle, myc-tagged (human) (UniProt Q13277).
T1 sequence: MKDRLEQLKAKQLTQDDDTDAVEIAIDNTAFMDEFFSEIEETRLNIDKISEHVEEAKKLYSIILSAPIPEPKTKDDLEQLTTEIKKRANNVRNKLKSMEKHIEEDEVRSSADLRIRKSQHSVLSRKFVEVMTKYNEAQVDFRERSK

In test [2] the target is T2, C-terminally myc-epitope tagged Stx3 (membrane-anchored Stx3A) (human) (UniProt Q13277).
T2 sequence: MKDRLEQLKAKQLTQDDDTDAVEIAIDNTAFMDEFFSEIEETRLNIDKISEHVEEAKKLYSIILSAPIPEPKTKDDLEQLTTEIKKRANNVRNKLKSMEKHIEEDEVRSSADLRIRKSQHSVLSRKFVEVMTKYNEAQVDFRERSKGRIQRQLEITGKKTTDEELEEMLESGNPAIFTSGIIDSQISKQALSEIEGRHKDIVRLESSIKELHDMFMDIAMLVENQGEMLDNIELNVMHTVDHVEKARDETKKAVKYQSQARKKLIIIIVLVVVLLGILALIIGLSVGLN

For test [3], the target named is RanBP5 (endogenous in MDCK cells) (dog (endogenous in MDCK)).

Turning to RanBP5 (endogenous in MDCK cells), the binding entry in test [1] and in test [2] was “binds” each time.

B1: C-terminally myc-epitope tagged Stx3 (membrane-anchored Stx3A) (protein, UniProt Q13277 1-289)
chain: MKDRLEQLKAKQLTQDDDTDAVEIAIDNTAFMDEFFSEIEETRLNIDKISEHVEEAKKLYSIILSAPIPEPKTKDDLEQLTTEIKKRANNVRNKLKSMEKHIEEDEVRSSADLRIRKSQHSVLSRKFVEVMTKYNEAQVDFRERSKGRIQRQLEITGKKTTDEELEEMLESGNPAIFTSGIIDSQISKQALSEIEGRHKDIVRLESSIKELHDMFMDIAMLVENQGEMLDNIELNVMHTVDHVEKARDETKKAVKYQSQARKKLIIIIVLVVVLLGILALIIGLSVGLN
B1: the binding entry in test [3] is “binds”.
